Assay results published in PMC8790031.

Amino acid sequences for entries named in this document (tags omitted). A change or cut given only in a name is not applied to a line headed by its entry.
UniProt Q8H6G2: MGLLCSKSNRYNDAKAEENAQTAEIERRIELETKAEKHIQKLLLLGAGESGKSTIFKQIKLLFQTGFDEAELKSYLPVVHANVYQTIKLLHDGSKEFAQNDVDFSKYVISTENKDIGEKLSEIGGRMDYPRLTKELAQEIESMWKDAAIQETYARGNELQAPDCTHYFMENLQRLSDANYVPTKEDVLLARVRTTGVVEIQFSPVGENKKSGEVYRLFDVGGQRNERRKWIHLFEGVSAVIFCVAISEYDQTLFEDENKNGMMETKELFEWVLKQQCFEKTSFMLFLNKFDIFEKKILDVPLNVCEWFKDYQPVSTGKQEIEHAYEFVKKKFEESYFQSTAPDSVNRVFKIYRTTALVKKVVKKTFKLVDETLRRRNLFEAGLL
UniProt Q8LJQ9: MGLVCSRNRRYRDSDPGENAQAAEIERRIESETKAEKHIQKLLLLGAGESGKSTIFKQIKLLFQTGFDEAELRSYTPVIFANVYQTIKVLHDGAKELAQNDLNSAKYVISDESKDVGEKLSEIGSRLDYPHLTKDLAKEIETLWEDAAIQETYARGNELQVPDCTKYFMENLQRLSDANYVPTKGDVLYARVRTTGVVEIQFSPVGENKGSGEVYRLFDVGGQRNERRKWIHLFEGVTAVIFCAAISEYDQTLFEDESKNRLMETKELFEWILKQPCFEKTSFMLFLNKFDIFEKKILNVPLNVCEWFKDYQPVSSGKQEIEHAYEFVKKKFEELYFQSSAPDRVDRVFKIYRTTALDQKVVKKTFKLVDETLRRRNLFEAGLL
UniProt A0A9D4WTS0: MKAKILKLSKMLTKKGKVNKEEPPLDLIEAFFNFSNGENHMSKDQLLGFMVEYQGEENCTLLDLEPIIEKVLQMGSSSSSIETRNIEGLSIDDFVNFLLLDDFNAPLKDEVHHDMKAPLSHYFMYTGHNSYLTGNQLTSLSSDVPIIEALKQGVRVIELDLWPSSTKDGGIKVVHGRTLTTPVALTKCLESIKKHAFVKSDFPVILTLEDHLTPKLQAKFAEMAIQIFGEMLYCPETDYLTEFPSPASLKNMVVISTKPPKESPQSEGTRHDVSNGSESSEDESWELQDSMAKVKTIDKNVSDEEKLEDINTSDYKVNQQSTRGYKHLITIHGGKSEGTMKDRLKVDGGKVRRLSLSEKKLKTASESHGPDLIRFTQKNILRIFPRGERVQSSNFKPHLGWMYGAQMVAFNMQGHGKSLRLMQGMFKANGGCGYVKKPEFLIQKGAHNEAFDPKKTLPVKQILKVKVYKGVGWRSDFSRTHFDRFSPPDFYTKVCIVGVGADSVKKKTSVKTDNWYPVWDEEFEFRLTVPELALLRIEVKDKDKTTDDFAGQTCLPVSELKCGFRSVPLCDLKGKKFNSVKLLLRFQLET

Key:
[1] = molecular target: PsG alpha 1 (Pisum sativum heterotrimeric G-protein alpha 1 subunit) (Pisum sativum) (UniProt Q8H6G2); assay: co-IP; in vitro: soluble fractions of E. coli C41 lysates with 6xHIS- or 3xFLAG-tagged proteins mixed in pairs with uMACS MicroBeads (anti-HIS or anti-FLAG), 4 °C, 1.5 h; uMACS column, washed with lysis buffer; eluate analysed by Western blot
[2] = molecular target: PsG alpha 2 (Pisum sativum heterotrimeric G-protein alpha 2 subunit) (Pisum sativum) (UniProt Q8LJQ9); assay: as above

binding [1]: no binding
binding [2]: binds
Substance: PsPLC (Pisum sativum phospholipase C, PsPLC1) (from UniProt A0A9D4WTS0) (enzyme)

Results are given in words; binding and its absence hold for the method and conditions named. Binding seen in cells or lysates may run through a third protein. For some assays here: A result given as binding can be weak or reduced; the word gives no strength.
